The source of these data is publication PMC6316800.

The chains behind the UniProt entries cited, without tags or fusion partners.
UniProt Q14980: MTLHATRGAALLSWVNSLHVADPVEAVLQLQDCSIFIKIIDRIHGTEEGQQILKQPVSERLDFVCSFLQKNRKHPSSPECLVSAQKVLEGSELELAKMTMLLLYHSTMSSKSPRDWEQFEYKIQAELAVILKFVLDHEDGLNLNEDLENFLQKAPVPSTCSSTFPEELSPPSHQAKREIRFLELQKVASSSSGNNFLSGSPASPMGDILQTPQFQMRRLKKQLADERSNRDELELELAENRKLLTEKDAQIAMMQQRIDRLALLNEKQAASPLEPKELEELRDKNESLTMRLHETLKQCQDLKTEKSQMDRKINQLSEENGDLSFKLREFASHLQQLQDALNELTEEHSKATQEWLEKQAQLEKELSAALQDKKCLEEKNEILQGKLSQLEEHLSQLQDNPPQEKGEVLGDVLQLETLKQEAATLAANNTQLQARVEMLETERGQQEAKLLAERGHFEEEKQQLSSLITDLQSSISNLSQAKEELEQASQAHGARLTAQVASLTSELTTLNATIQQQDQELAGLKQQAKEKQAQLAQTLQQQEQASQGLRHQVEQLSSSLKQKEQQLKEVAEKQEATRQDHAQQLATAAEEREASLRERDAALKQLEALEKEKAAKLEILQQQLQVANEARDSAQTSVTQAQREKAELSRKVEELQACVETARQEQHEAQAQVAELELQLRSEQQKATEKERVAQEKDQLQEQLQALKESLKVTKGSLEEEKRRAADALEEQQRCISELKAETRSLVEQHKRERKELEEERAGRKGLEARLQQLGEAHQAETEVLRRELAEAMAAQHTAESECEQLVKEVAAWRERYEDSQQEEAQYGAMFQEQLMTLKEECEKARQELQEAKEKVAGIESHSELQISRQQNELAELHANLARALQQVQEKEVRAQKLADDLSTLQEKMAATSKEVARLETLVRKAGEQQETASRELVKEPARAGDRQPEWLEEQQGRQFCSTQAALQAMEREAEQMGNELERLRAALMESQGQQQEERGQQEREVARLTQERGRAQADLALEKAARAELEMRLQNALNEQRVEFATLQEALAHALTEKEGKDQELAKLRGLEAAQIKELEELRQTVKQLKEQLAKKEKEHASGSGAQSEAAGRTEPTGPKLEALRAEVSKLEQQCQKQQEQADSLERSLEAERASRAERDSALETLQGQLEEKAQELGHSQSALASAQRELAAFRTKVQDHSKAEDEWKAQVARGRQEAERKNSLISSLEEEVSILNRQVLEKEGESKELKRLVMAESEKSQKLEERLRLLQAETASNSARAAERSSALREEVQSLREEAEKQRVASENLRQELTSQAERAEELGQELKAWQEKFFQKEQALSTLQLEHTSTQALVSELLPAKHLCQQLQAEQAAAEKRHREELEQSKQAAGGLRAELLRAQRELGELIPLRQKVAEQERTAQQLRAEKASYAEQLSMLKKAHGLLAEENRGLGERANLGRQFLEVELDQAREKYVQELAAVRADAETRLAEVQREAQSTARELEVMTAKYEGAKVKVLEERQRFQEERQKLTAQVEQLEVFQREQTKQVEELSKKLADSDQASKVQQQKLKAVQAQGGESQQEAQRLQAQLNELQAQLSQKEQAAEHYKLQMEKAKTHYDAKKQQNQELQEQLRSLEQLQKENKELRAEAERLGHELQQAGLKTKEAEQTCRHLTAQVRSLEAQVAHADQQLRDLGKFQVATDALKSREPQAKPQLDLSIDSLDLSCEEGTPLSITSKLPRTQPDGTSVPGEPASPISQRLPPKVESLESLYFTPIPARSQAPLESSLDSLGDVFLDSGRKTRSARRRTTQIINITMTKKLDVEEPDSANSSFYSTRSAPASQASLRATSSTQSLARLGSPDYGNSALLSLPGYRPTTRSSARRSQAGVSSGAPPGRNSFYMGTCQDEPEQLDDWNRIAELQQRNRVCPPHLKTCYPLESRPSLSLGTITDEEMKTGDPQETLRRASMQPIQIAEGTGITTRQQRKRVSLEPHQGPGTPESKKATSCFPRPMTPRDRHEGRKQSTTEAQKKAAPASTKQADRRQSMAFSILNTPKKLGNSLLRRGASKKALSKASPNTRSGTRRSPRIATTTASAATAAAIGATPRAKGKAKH
UniProt P03496: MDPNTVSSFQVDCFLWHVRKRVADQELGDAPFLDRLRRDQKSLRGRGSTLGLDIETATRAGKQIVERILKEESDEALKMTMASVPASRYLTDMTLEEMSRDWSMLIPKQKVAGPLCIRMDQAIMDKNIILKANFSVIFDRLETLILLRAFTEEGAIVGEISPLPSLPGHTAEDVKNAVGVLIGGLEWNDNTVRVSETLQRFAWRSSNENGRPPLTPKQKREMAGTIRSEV

No constants are given. Whether binding was seen depends on the method and setting. In cells and extracts the contact can be indirect. Some results given as binding are weak or reduced against the parent protein; the word gives no strength.

This assay concerns the target Nuclear mitotic apparatus protein 1 (human (endogenous in A549)) (UniProt Q14980). The experiment in a line: co-IP.

Take “Influenza A virus non-structural protein 1 (NS1), strain A/Puerto Rico/8/1934(H1N1) (from UniProt P03496 1-230)”: the binding entry is given as “binds”.
